According to the supplement of paper PMC8728848:
The list shows a part of the results.

How the values were obtained:
Assay in all cases: glycan array binding signal (z-score within array); higher = stronger binding
Conditions in all cases: glycan notation: IUPAC condensed, linker removed
[1] = target: Gal(b1-4)GlcNAc(b1-3)Gal(b1-4)Glc
Outline: (§1)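 Columns mapping to the same glycan were averaged after glycan names were converted to IUPAC-condensed notation. The data come from 3228 arrays in the Consortium for Functional Glycomics database, limited to those with an available protein sequence. Binding is reported as a within-array Z-score averaged across arrays of one protein sequence and across linkers.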

[2] = target: Gal(b1-4)GlcNAc(b1-3)Gal(b1-4)GlcNAc
Outline: as §1

[3] = target: Gal(b1-4)GlcNAc(b1-3)Gal(b1-4)GlcNAc(b1-3)Gal(b1-4)GlcNAc
Outline: as §1

[4] = target: Gal(b1-4)GlcNAc(b1-3)Gal(b1-4)[Fuc(a1-3)GlcNAc(b1-6)]Gal(b1-4)Glc
Outline: as §1

[5] = target: Gal(b1-4)GlcNAc(b1-3)Gal(b1-4)[Fuc(a1-3)]GlcNAc(b1-3)Gal(b1-4)[Fuc(a1-3)]GlcNAc
Outline: as §1

[6] = target: Gal(b1-4)GlcNAc(b1-3)GalNAc
Outline: as §1

[7] = target: Gal(b1-4)GlcNAc(b1-3)[Gal(b1-4)GlcNAc(b1-6)]Gal(b1-4)GlcNAc
Outline: as §1

[8] = target: Gal(b1-4)GlcNAc(b1-3)[Gal(b1-4)GlcNAc(b1-6)]GalNAc
Outline: as §1

[9] = target: Gal(b1-4)GlcNAc(b1-3)[GlcNAc(b1-6)]Gal(b1-4)GlcNAc
Outline: as §1

[10] = target: Gal(b1-4)GlcNAc(b1-6)Gal(b1-4)GlcNAc
Outline: as §1

[11] = target: Gal(b1-4)GlcNAc(b1-6)GalNAc
Outline: as §1

[12] = target: Gal(b1-4)GlcNAc(b1-6)[Gal(b1-3)]GalNAc
Outline: as §1

Gal(b1-6)Gal = target: Gal(b1-6)Gal
Outline: as §1

Gal3S(b1-3)GalNAc = target: Gal3S(b1-3)GalNAc
Outline: as §1

Gal3S(b1-3)GlcNAc = target: Gal3S(b1-3)GlcNAc
Outline: as §1

[13] = target: Gal3S(b1-3)[Fuc(a1-4)]GlcNAc
Outline: as §1

Gal3S(b1-4)Glc = target: Gal3S(b1-4)Glc
Outline: as §1

Gal3S(b1-4)Glc6S = target: Gal3S(b1-4)Glc6S
Outline: as §1

Gal3S(b1-4)GlcNAc = target: Gal3S(b1-4)GlcNAc
Outline: as §1

Gal3S(b1-4)GlcNAc6S = target: Gal3S(b1-4)GlcNAc6S
Outline: as §1

[14] = target: Gal3S(b1-4)[Fuc(a1-3)]Glc
Outline: as §1

[15] = target: Gal3S(b1-4)[Fuc(a1-3)]Glc6S
Outline: as §1

Gal3S4S(b1-4)GlcNAc = target: Gal3S4S(b1-4)GlcNAc
Outline: as §1

Gal3S6S(b1-4)GlcNAc = target: Gal3S6S(b1-4)GlcNAc
Outline: as §1

Gal3S6S(b1-4)GlcNAc6S = target: Gal3S6S(b1-4)GlcNAc6S
Outline: as §1

Gal4S(b1-4)GlcNAc = target: Gal4S(b1-4)GlcNAc
Outline: as §1

Gal4S6S(b1-4)GlcNAc = target: Gal4S6S(b1-4)GlcNAc
Outline: as §1

Gal6S(b1-3)GlcNAc = target: Gal6S(b1-3)GlcNAc
Outline: as §1

Gal6S(b1-3)GlcNAc6S = target: Gal6S(b1-3)GlcNAc6S
Outline: as §1

Gal6S(b1-4)Glc = target: Gal6S(b1-4)Glc
Outline: as §1

Gal6S(b1-4)Glc6S = target: Gal6S(b1-4)Glc6S
Outline: as §1

Gal6S(b1-4)GlcNAc = target: Gal6S(b1-4)GlcNAc
Outline: as §1

Gal6S(b1-4)GlcNAc6S = target: Gal6S(b1-4)GlcNAc6S
Outline: as §1

GalNAc(a1-3)Gal = target: GalNAc(a1-3)Gal
Outline: as §1

GalNAc(a1-3)GalNAc = target: GalNAc(a1-3)GalNAc
Outline: as §1

[16] = target: GalNAc(a1-3)GalNAc(a1-3)Gal(a1-4)Gal(b1-4)GlcNAc
Outline: as §1

[17] = target: GalNAc(a1-3)GalNAc(b1-3)Gal(a1-4)Gal(b1-4)Glc
Outline: as §1

GalNAc(b1-3)Gal = target: GalNAc(b1-3)Gal
Outline: as §1

[18] = target: GalNAc(b1-3)Gal(a1-4)Gal(b1-4)GlcNAc
Outline: as §1

[19] = target: GalNAc(b1-3)Gal(a1-4)Gal(b1-4)GlcNAc(b1-3)Gal(b1-4)Glc
Outline: as §1

[20] = target: GalNAc(b1-3)Gal(a1-6)Gal(b1-4)Glc
Outline: as §1

GalNAc(b1-3)GalNAc = target: GalNAc(b1-3)GalNAc
Outline: as §1

GalNAc(b1-4)Gal(b1-4)Glc = target: GalNAc(b1-4)Gal(b1-4)Glc
Outline: as §1

GalNAc(b1-4)GlcNAc = target: GalNAc(b1-4)GlcNAc
Outline: as §1

[21] = target: GalNAc(b1-4)GlcNAc(b1-2)Man(a1-3)[GalNAc(b1-4)GlcNAc(b1-2)Man(a1-6)]Man(b1-4)GlcNAc(b1-4)GlcNAc
Outline: as §1

B1: Flo11 (Saccharomyces cerevisiae), P08640 (protein)
chain: MQRPFLLAYLVLSLLFNSALGFPTALVPRGSSEGTSCNSIVNGCPNLDFNWHMDQQNIMQYTLDVTSVSWVQDNTYQITIHVKGKENIDLKYLWSLKIIGVTGPKGTVQLYGYNENTYLIDNPTDFTATFEVYATQDVNSCQVWMPNFQIQFEYLQGSAAQYASSWQWGTTSFDLSTGCNNYDNQGHSQTDFPGFYWNIDCDNNCGGTKSSTTTSSTSESSTTTSSTSESSTTTSSTSESSTTTSSTSESSTSSSTTAPATPTTTSCTKEKPTPPTTTSCTKEKPTPPHHDTTPCTKKKTTTSKTCTKKTTTPVPTPSSSTTESSSAPVPTPSSSTTESSSAPVTSSTTESSSAPVPTPSSSTTESSSAPVTSSTTESSSAPVTSSTTESSSAPVPTPSSSTTESSSAPVTSSTTESSSAPVTSSTTESSSAPVTSSTTESSSAPVTSSTTESSSAPVPTPSSSTTESSSAPVTSSTTESSSAPVPTPSSSTTESSSAPVTSSTTESSSAPVPTPSSSTTESSSAPAPTPSSSTTESSSAPVTSSTTESSSAPVPTPSSSTTESSSTPVTSSTTESSSAPVPTPSSSTTESSSAPVPTPSSSTTESSSAPAPTPSSSTTESSSAPVTSSTTESSSAPVPTPSSSTTESSSAPVPTPSSSTTESSSAPVPTPSSSTTESSSAPVTSSTTESSSAPVTSSTTESSSAPVPTPSSSTTESSSAPVPTPSSSTTESSSAPVPTPSSSTTESSSAPVTSSTTESSSAPVPTPSSSTTESSSAPVPTPSSSTTESSSAPVPTPSSSTTESSVAPVPTPSSSSNITSSAPSSTPFSSSTESSSVPVPTPSSSTTESSSAPVSSSTTESSVAPVPTPSSSSNITSSAPSSIPFSSTTESFSTGTTVTPSSSKYPGSQTETSVSSTTETTIVPTKTTTSVTTPSTTTITTTVCSTGTNSAGETTSGCSPKTVTTTVPTTTTTSVTTSSTTTITTTVCSTGTNSAGETTSGCSPKTITTTVPCSTSPSETASESTTTSPTTPVTTVVSTTVVTTEYSTSTKPGGEITTTFVTKNIPTTYLTTIAPTPSVTTVTNFTPTTITTTVCSTGTNSAGETTSGCSPKTVTTTVPCSTGTGEYTTEATTLVTTAVTTTVVTTESSTGTNSAGKTTTGYTTKSVPTTYVTTLAPSAPVTPATNAVPTTITTTECSAATNAAGETTSVCSAKTIVSSASAGENTAPSATTPVTTAIPTTVITTESSVGTNSAGETTTGYTTKSIPTTYITTLIPGSNGAKNYETVATATNPISIKTTSQLATTASASSVAPVVTSPSLTGPLQSASGSAVATYSVPSISSTYQGAANIKVLGNFMWLLLALPVVF
- glycan array binding signal (z-score) [1]: -0.307
- glycan array binding signal (z-score) [2]: -0.667
- glycan array binding signal (z-score) [3]: -0.265
- glycan array binding signal (z-score) [4]: -1.05
- glycan array binding signal (z-score) [5]: 0.018
- glycan array binding signal (z-score) [6]: 0.011
- glycan array binding signal (z-score) [7]: -0.658
- glycan array binding signal (z-score) [8]: -0.448
- glycan array binding signal (z-score) [9]: -0.912
- glycan array binding signal (z-score) [10]: -0.383
- glycan array binding signal (z-score) [11]: -0.773
- glycan array binding signal (z-score) [12]: -0.578
- glycan array binding signal (z-score) (Gal(b1-6)Gal): -0.852
- glycan array binding signal (z-score) (Gal3S(b1-3)GalNAc): -0.976
- glycan array binding signal (z-score) (Gal3S(b1-3)GlcNAc): 0.506
- glycan array binding signal (z-score) [13]: -0.498
- glycan array binding signal (z-score) (Gal3S(b1-4)Glc): 0.09
- glycan array binding signal (z-score) (Gal3S(b1-4)Glc6S): 0.393
- glycan array binding signal (z-score) (Gal3S(b1-4)GlcNAc): 2.02
- glycan array binding signal (z-score) (Gal3S(b1-4)GlcNAc6S): 0.3
- glycan array binding signal (z-score) [14]: 0.71
- glycan array binding signal (z-score) [15]: 0.808
- glycan array binding signal (z-score) (Gal3S4S(b1-4)GlcNAc): 0.472
- glycan array binding signal (z-score) (Gal3S6S(b1-4)GlcNAc): -0.322
- glycan array binding signal (z-score) (Gal3S6S(b1-4)GlcNAc6S): 0.39
- glycan array binding signal (z-score) (Gal4S(b1-4)GlcNAc): -0.787
- glycan array binding signal (z-score) (Gal4S6S(b1-4)GlcNAc): 0.363
- glycan array binding signal (z-score) (Gal6S(b1-3)GlcNAc): 0.363
- glycan array binding signal (z-score) (Gal6S(b1-3)GlcNAc6S): -0.484
- glycan array binding signal (z-score) (Gal6S(b1-4)Glc): -0.443
- glycan array binding signal (z-score) (Gal6S(b1-4)Glc6S): -0.866
- glycan array binding signal (z-score) (Gal6S(b1-4)GlcNAc): 0.825
- glycan array binding signal (z-score) (Gal6S(b1-4)GlcNAc6S): 0.193
- glycan array binding signal (z-score) (GalNAc(a1-3)Gal): 0.534
- glycan array binding signal (z-score) (GalNAc(a1-3)GalNAc): 0.263
- glycan array binding signal (z-score) [16]: -0.434
- glycan array binding signal (z-score) [17]: 0.845
- glycan array binding signal (z-score) (GalNAc(b1-3)Gal): -0.811
- glycan array binding signal (z-score) [18]: -0.709
- glycan array binding signal (z-score) [19]: -0.081
- glycan array binding signal (z-score) [20]: 0.165
- glycan array binding signal (z-score) (GalNAc(b1-3)GalNAc): -0.184
- glycan array binding signal (z-score) (GalNAc(b1-4)Gal(b1-4)Glc): -0.38
- glycan array binding signal (z-score) (GalNAc(b1-4)GlcNAc): 0.238
- glycan array binding signal (z-score) [21]: 0.79
